According to PubChem BioAssay AID322 (DTP/NCI, 2004):
The list does not hold the whole screen: it is rich in T/C values a quarter to a half above the control, in often repeated tests (any T/C) and in doses without a T/C. Further doses and runs are listed elsewhere. T/C: endpoint of the treated group in % of that of the vehicle group. Some doses have a count of surviving animals in place of a T/C: the source files T/C as zero there, which appears to mark a toxic dose or a test without result, not a measured value. Some doses without a T/C left all or most animals alive at the check, yet need not have been tolerated: survival well below the control is almost never listed, so the zero probably covers shortened survival too. Counts of survivors are from the toxicity check (mostly the fifth day) where no day follows; animals may have died later. Schedule codes are those of the source, taken here to give the interval after Q, in days (D) or hours (H), and the number of doses after X. Some entries hold several experiments; their values stand side by side, smallest first. Where survival is the endpoint, the PubChem record calls one and a half times the control and up active, and a quarter to a half above the control has no call in these data; cut-offs in other NCI protocols can differ. Some T/C values carry the count of animals alive at the toxicity check (mostly the fifth day); without a count, all were alive then. *1 amine or outer side, *2 acyl side, *3 side chain or, on linkers, in order; H or OH if unused. Where a SMILES comes first, the peptide text is derived from it. Bridges are numbered along the chain shown (N, C = ends). Roman numbers before positions name the chains, in order. [ ]: non-standard residue; d: D form. Actinocin(9to1) = Cc1c2oc3c(C)ccc(C(=O)[*:1])c3nc-2c(C(=O)[*:2])c(N)c1=O; aThr = C[C@H](O)[C@H](N)C(=O)O; NMeV = CN[C@H](C(=O)O)C(C)C; Sar = CNCC(=O)O

System: CD2F1 mice, P388/ADR leukemia ip, median survival T/C
Test: NCI In Vivo Anticancer Drug Screen. Data for tumor model P388 Leukemia resistant to Adriamycin; NSC 123127, Developed at Scr 08 (intraperitoneal) in CD2F1 (CDF1) mice
Conditions: T/C endpoint: median survival time, higher T/C = longer survival
Procedure: The antitumor activity of compounds was measured in mice bearing transplantable tumors. Survival or tumor size were measured and the results are expressed as the measurement made in the treated group (T) divided by the measurement made in the vehicle treated control group (C). The tumor model used in this assay is P388 Leukemia resistant to Adriamycin; NSC 123127, Developed at Scr 08 (intraperitoneal) in CD2F1 (CDF1) mice

[1] = dose: 1111.11 mg/kg/injection, schedule: Q01DX005 (ip), vehicle: saline with Tween-80
[2] = dose: 12.5 mg/kg/injection, schedule: Q01DX005 (ip), vehicle: Klucel (hydroxypropylcellulose) (HPC)
[3] = dose: 25.0 mg/kg/injection, schedule: Q01DX005 (ip), vehicle: Klucel (hydroxypropylcellulose) (HPC)

## OC(CBr)C(O)C(O)C(O)CBr (configuration not stated)
dose: 40.0 mg/kg/injection, schedule: Q01DX009 (ip), vehicle: Klucel (hydroxypropylcellulose) (HPC)
  T/C: 146 % of control

## BrC[P+](CBr)(CBr)CBr
dose: 100.0 mg/kg/injection, schedule: Q01DX005 (ip), vehicle: saline with Tween-80
  T/C: 125 % of control
dose: 144.0 mg/kg/injection, schedule: Q01DX005 (ip), vehicle: saline with Tween-80
  T/C: 126 % of control
dose: 200.0 mg/kg/injection, schedule: Q01DX005 (ip), vehicle: saline with Tween-80
  T/C: 128 and 132 % of control
dose: 240.0 mg/kg/injection, schedule: Q01DX005 (ip), vehicle: saline with Tween-80
  T/C: 134 % of control
dose: 400.0 mg/kg/injection, schedule: Q01DX005 (ip), vehicle: saline with Tween-80
  T/C: 126 [8 of 10 alive], 127 [9 of 10 alive], 132 [8 of 10 alive], 170 % of control
dose: 666.67 mg/kg/injection, schedule: Q01DX005 (ip), vehicle: saline with Tween-80
  survivor count: 3 of 10
dose: 800.0 mg/kg/injection, schedule: Q01DX005 (ip), vehicle: saline with Tween-80
  survivor count: 0 of 10 and 3 of 10
[1]
  T/C: 133 % of control [8 of 10 alive]
  survivor count: 0 of 10

## COC1CC2C=C(C)/C=C/C=C/C(=O)NC(c3ccccc3)C/C=C/CCC(O)CC(=O)C2=C1O (configuration not stated)
[2]
  survivor count: 10 of 10
[3]
  survivor count: 3 of 10
dose: 50.0 mg/kg/injection, schedule: Q01DX005 (ip), vehicle: Klucel (hydroxypropylcellulose) (HPC)
  survivor count: 1 of 10

## CC(=O)N(C)c1ccc(Nc2cc(C)[nH]c3ccc4ncnc4c23)cc1
dose: 67.0 mg/kg/injection, schedule: Q01DX005 (ip), vehicle: saline
  T/C: 127 % of control

## Cc1c2oc3c(C)ccc(C(=O)N[C@@H]4C(=O)N[C@H](C(C)C)C(=O)N5CCC[C@H]5C(=O)N(C)CC(=O)N(C)[C@@H](C(C)C)C(=O)O[C@H]4C)c3nc-2c(C(=O)N[C@@H]2C(=O)N[C@H](C(C)C)C(=O)N3CCC[C@H]3C(=O)N(C)CC(=O)N(C)[C@@H](C(C)C)C(=O)O[C@H]2C)c(N)c1=O (I: [aThr][dV]P[Sar][NMeV] / II: [aThr][dV]P[Sar][NMeV]; ester I:1-I:C, II:1-II:C; linker I:N-II:N via Actinocin(9to1))
dose: 6.25 micrograms/kg/injection, schedule: Q01DX005 (ip), vehicle: saline + alcohol
  T/C: 133 % of control
dose: 12.5 micrograms/kg/injection, schedule: Q01DX005 (ip), vehicle: saline + alcohol
  T/C: 137 % of control

## NC(N)=NS(=O)(=O)c1ccc(NCc2c3ccccc3nc3ccccc23)cc1
dose: 800.0 mg/kg/injection, schedule: Q04DX003 (ip), vehicle: Klucel (hydroxypropylcellulose) (HPC)
  survivor count: 10 of 10

## CC1(C)N=C(N)N=C(N)N1c1ccc(CCCCc2ccc(S(=O)(=O)F)cc2Cl)c(Cl)c1
dose: 60.0 mg/kg/injection, schedule: Q01DX009 (ip), vehicle: saline with Tween-80
  survivor count: 10 of 10

## CN(C)CCN1C(=O)c2cccc3cc(N)cc(c23)C1=O
dose: 11.0 mg/kg/injection, schedule: Q01DX009 (ip), vehicle: saline with Tween-80
  T/C: 129 % of control

## CSC1SCC2C(=O)N(C)C(C(C)C)C(=O)OCC(NC(=O)c3cnc4ccccc4n3)C(=O)NC(C)C(=O)N(C)C1C(=O)N(C)C(C(C)C)C(=O)OCC(NC(=O)c1cnc3ccccc3n1)C(=O)NC(C)C(=O)N2C (configuration not stated)
dose: 67.0 micrograms/kg/injection, schedule: Q01DX005 (ip), vehicle: saline
  T/C: 149 % of control [9 of 10 alive]

## CN=C(NC)c1ccc(NC(=O)/C=C\c2ccc(/C=C/C(=O)Nc3ccc(C(=NC)NC)cc3)cc2)cc1
[2]
  T/C: 144 % of control
[3]
  T/C: 131 % of control [9 of 10 alive]

## N[C@@H](Cc1ccc(N(CCCl)CCCl)cc1)C(=O)O
dose: 8.0 mg/kg/injection, schedule: Q01DX005 (ip), vehicle: saline
  survivor count: 9 of 10

## CO[C@H]1C[C@](C)(O)Cc2cc3c(c(O)c21)C(=O)c1c(O)cc2c(c1C3=O)O[C@@H]1O[C@@]2(C)[C@H](O)[C@@H](N(C)C)[C@@H]1O
dose: 6.7 mg/kg/injection, schedule: Q01DX009 (ip), vehicle: other
  T/C: 145 % of control
dose: 10.0 mg/kg/injection, schedule: Q01DX009 (ip), vehicle: other
  T/C: 145 % of control
dose: 15.0 mg/kg/injection, schedule: Q01DX009 (ip), vehicle: other
  T/C: 146 % of control
dose: 22.5 mg/kg/injection, schedule: Q01DX009 (ip), vehicle: other
  T/C: 133 % of control
